From PubChem BioAssay AID328 (DTP/NCI, 2004)
The list does not hold the whole screen: its compounds were picked by chemical class. Other doses and runs of a compound may be missing. T/C: endpoint of the treated group in % of that of the vehicle group. Some entries give survivors of the animals treated and no T/C: the source files T/C as zero there, which appears to mark a toxic dose or a test without result, not a measured value. Some survivor counts are full or nearly so, which does not show that the dose was tolerated: survival well below the control is almost never listed, so the zero probably covers shortened survival too. Counts of survivors are from the toxicity check (mostly the fifth day) where no day follows; animals may have died later. Schedule codes are those of the source, taken here to give the interval after Q, in days (D) or hours (H), and the number of doses after X. For survival time, the PubChem record calls one and a half times the control and up active, and a quarter to a half above the control has no call in these data; cut-offs in other NCI protocols can differ. Some doses were run more than once; the values are given in rising order. Some T/C values are marked as having no survivor count here; that says nothing about deaths at the dose. Some T/C values carry the count of animals alive at the toxicity check (mostly the fifth day); without a count or a note in brackets, all were alive then.

Tested on: BDF1 mice, P388 leukemia ip, median survival T/C
Assay: NCI In Vivo Anticancer Drug Screen. Data for tumor model P388 Leukemia (intraperitoneal) in B6D2F1 (BDF1) mice
Conditions: T/C endpoint: median survival time, higher T/C = longer survival
Description: The antitumor activity of compounds was measured in mice bearing transplantable tumors. Survival or tumor size were measured and the results are expressed as the measurement made in the treated group (T) divided by the measurement made in the vehicle treated control group (C). The tumor model used in this assay is P388 Leukemia (intraperitoneal) in B6D2F1 (BDF1) mice

[1] = dose: 10.0 mg/kg/injection, schedule: Q04DX003 (ip), vehicle: Klucel (hydroxypropylcellulose) (HPC)

Structure (SMILES): CN(/N=C\c1ccc(N(CCBr)CCBr)cc1)C(=N)N
- T/C (dose: 0.2 mg/kg/injection, schedule: Q04DX003 (ip), vehicle: Klucel (hydroxypropylcellulose) (HPC)): 100 % of control
- T/C (dose: 0.3 mg/kg/injection, schedule: Q04DX003 (ip), vehicle: Klucel (hydroxypropylcellulose) (HPC)): 100 % of control
- T/C (dose: 0.5 mg/kg/injection, schedule: Q04DX003 (ip), vehicle: Klucel (hydroxypropylcellulose) (HPC)): 111 and 145 % of control
- T/C (dose: 0.8 mg/kg/injection, schedule: Q04DX003 (ip), vehicle: Klucel (hydroxypropylcellulose) (HPC)): 141 % of control
- T/C (dose: 1.3 mg/kg/injection, schedule: Q04DX003 (ip), vehicle: Klucel (hydroxypropylcellulose) (HPC)): 136 and 158 % of control
- T/C (dose: 1.5 mg/kg/injection, schedule: Q01DX009 (ip), vehicle: Klucel (hydroxypropylcellulose) (HPC)): 126 % of control
- T/C (dose: 2.0 mg/kg/injection, schedule: Q04DX003 (ip), vehicle: Klucel (hydroxypropylcellulose) (HPC)): 136 % of control
- T/C (dose: 3.0 mg/kg/injection, schedule: Q01DX009 (ip), vehicle: Klucel (hydroxypropylcellulose) (HPC)): 161 % of control
- T/C (dose: 3.0 mg/kg/injection, schedule: Q04DX003 (ip), vehicle: Klucel (hydroxypropylcellulose) (HPC)): 136 % of control
- T/C (dose: 4.5 mg/kg/injection, schedule: Q04DX003 (ip), vehicle: Klucel (hydroxypropylcellulose) (HPC)): 153 % of control
- T/C (dose: 6.0 mg/kg/injection, schedule: Q01DX009 (ip), vehicle: Klucel (hydroxypropylcellulose) (HPC)): 188 % of control
- T/C (dose: 7.0 mg/kg/injection, schedule: Q04DX003 (ip), vehicle: Klucel (hydroxypropylcellulose) (HPC)): 165 % of control
- T/C (dose: 11.0 mg/kg/injection, schedule: Q04DX003 (ip), vehicle: Klucel (hydroxypropylcellulose) (HPC)): 188 % of control
- T/C (dose: 12.5 mg/kg/injection, schedule: Q04DX003 (ip), vehicle: Klucel (hydroxypropylcellulose) (HPC)): 144 % of control
- T/C (dose: 16.5 mg/kg/injection, schedule: Q04DX003 (ip), vehicle: Klucel (hydroxypropylcellulose) (HPC)): 154 and 173 % of control
- T/C (dose: 25.0 mg/kg/injection, schedule: Q04DX003 (ip), vehicle: Klucel (hydroxypropylcellulose) (HPC)): 108 and 168 % of control
- survivor count (dose: 37.5 mg/kg/injection, schedule: Q04DX003 (ip), vehicle: Klucel (hydroxypropylcellulose) (HPC)): 6 of 6
- T/C (dose: 50.0 mg/kg/injection, schedule: Q04DX003 (ip), vehicle: Klucel (hydroxypropylcellulose) (HPC)): 104 % of control

Structure (SMILES): C[N+](CCCl)(CCCl)Cc1ccccc1
- T/C (dose: 12.5 mg/kg/injection, schedule: Q01DX001 (ip), vehicle: saline): 100 % of control
- T/C (dose: 25.0 mg/kg/injection, schedule: Q01DX001 (ip), vehicle: saline): 100 % of control
- T/C (dose: 25.0 mg/kg/injection, schedule: Q04DX003 (ip), vehicle: saline): 109 % of control
- T/C (dose: 50.0 mg/kg/injection, schedule: Q01DX001 (ip), vehicle: saline): 108 % of control
- T/C (dose: 50.0 mg/kg/injection, schedule: Q04DX003 (ip), vehicle: saline): 90 % of control

Structure (SMILES): CC1COP(N(C(C)C)C(C)C)O1 (configuration not stated)
- T/C (dose: 50.0 mg/kg/injection, schedule: Q01DX009 (ip), vehicle: saline with Tween-80): 109 % of control
- T/C (dose: 100.0 mg/kg/injection, schedule: Q01DX009 (ip), vehicle: saline with Tween-80): 103 % of control
- T/C (dose: 200.0 mg/kg/injection, schedule: Q01DX009 (ip), vehicle: saline with Tween-80): 94 % of control

Structure (SMILES): CN(N=O)C(=N)N[N+](=O)[O-]
- T/C (dose: 8.0 mg/kg/injection, schedule: Q01DX010 (ip), vehicle: saline): 180 and 195 % of control
- T/C (dose: 16.0 mg/kg/injection, schedule: Q01DX010 (ip), vehicle: saline): 120 and 122 % of control
- T/C (dose: 32.0 mg/kg/injection, schedule: Q01DX010 (ip), vehicle: saline): 90 and 95 % of control
- survivor count (dose: 64.0 mg/kg/injection, schedule: Q01DX010 (ip), vehicle: saline): 6 of 6

Structure (SMILES): ClCCNc1nc2ccccc2c2ccccc12
- T/C (dose: 5.8 mg/kg/injection, schedule: Q01DX009 (ip), vehicle: saline): 120 % of control
- T/C (dose: 8.7 mg/kg/injection, schedule: Q01DX009 (ip), vehicle: saline): 110 % of control
- T/C [1]: 105 % of control
- survivor count [1]: 6 of 6
- T/C (dose: 13.3 mg/kg/injection, schedule: Q01DX009 (ip), vehicle: Klucel (hydroxypropylcellulose) (HPC)): 125 % of control
- T/C (dose: 13.3 mg/kg/injection, schedule: Q01DX009 (ip), vehicle: saline): 95 % of control
- T/C (dose: 13.3 mg/kg/injection, schedule: Q04DX003 (ip), vehicle: Klucel (hydroxypropylcellulose) (HPC)): 100 and 112 % of control
- T/C (dose: 20.0 mg/kg/injection, schedule: Q01DX009 (ip), vehicle: Klucel (hydroxypropylcellulose) (HPC)): 120 % of control
- T/C (dose: 20.0 mg/kg/injection, schedule: Q01DX009 (ip), vehicle: saline): 109 and 133 % of control
- T/C (dose: 20.0 mg/kg/injection, schedule: Q04DX003 (ip), vehicle: Klucel (hydroxypropylcellulose) (HPC)): 95, 109, 116, 125 % of control
- T/C (dose: 30.0 mg/kg/injection, schedule: Q01DX009 (ip), vehicle: Klucel (hydroxypropylcellulose) (HPC)): 130 % of control
- T/C (dose: 30.0 mg/kg/injection, schedule: Q01DX009 (ip), vehicle: saline): 118 and 125 % of control
- T/C (dose: 30.0 mg/kg/injection, schedule: Q04DX003 (ip), vehicle: Klucel (hydroxypropylcellulose) (HPC)): 100 and 112 % of control
- T/C (dose: 40.0 mg/kg/injection, schedule: Q04DX003 (ip), vehicle: Klucel (hydroxypropylcellulose) (HPC)): 95 and 105 % of control
- T/C (dose: 45.0 mg/kg/injection, schedule: Q01DX009 (ip), vehicle: saline): 120 and 122 % of control
- T/C (dose: 45.0 mg/kg/injection, schedule: Q04DX003 (ip), vehicle: Klucel (hydroxypropylcellulose) (HPC)): 109 % of control
- T/C (dose: 70.0 mg/kg/injection, schedule: Q01DX009 (ip), vehicle: saline): 155 % of control
- T/C (dose: 70.0 mg/kg/injection, schedule: Q04DX003 (ip), vehicle: Klucel (hydroxypropylcellulose) (HPC)): 122 % of control
- survivor count (dose: 105.0 mg/kg/injection, schedule: Q01DX009 (ip), vehicle: saline): 0 of 6
- T/C (dose: 105.0 mg/kg/injection, schedule: Q04DX003 (ip), vehicle: Klucel (hydroxypropylcellulose) (HPC)): 122 % of control [4 of 6 alive]
- survivor count (dose: 160.0 mg/kg/injection, schedule: Q04DX003 (ip), vehicle: Klucel (hydroxypropylcellulose) (HPC)): 0 of 6
- survivor count (dose: 240.0 mg/kg/injection, schedule: Q04DX003 (ip), vehicle: Klucel (hydroxypropylcellulose) (HPC)): 0 of 6
- survivor count (dose: 360.0 mg/kg/injection, schedule: Q04DX003 (ip), vehicle: Klucel (hydroxypropylcellulose) (HPC)): 1 of 6

Structure (SMILES): CCC1COP(N(C)C)OC1 (configuration not stated)
- T/C (dose: 100.0 mg/kg/injection, schedule: Q01DX001 (ip), vehicle: saline): 120 % of control
- T/C (dose: 200.0 mg/kg/injection, schedule: Q01DX001 (ip), vehicle: saline): 100 % of control
- T/C (dose: 400.0 mg/kg/injection, schedule: Q01DX001 (ip), vehicle: saline): 101 % of control

Structure (SMILES): Nc1c([N+](=O)[O-])cc([N+](=O)[O-])cc1[N+](=O)[O-]
- T/C (dose: 100.0 mg/kg/injection, schedule: Q01DX009 (ip), vehicle: Klucel (hydroxypropylcellulose) (HPC)): 90 % of control [survivor count not shown]
- T/C (dose: 100.0 mg/kg/injection, schedule: Q04DX003 (ip), vehicle: Klucel (hydroxypropylcellulose) (HPC)): 104 % of control [survivor count not shown]
- T/C (dose: 200.0 mg/kg/injection, schedule: Q01DX009 (ip), vehicle: Klucel (hydroxypropylcellulose) (HPC)): 100 % of control [survivor count not shown]
- T/C (dose: 200.0 mg/kg/injection, schedule: Q04DX003 (ip), vehicle: Klucel (hydroxypropylcellulose) (HPC)): 109 % of control [survivor count not shown]
- T/C (dose: 400.0 mg/kg/injection, schedule: Q01DX009 (ip), vehicle: Klucel (hydroxypropylcellulose) (HPC)): 110 % of control [survivor count not shown]
- T/C (dose: 400.0 mg/kg/injection, schedule: Q04DX003 (ip), vehicle: Klucel (hydroxypropylcellulose) (HPC)): 100 % of control [survivor count not shown]
